Data source: PubChem BioAssay AID1259297 (Sanger Institute, 2017)
The deposit covers 794 reagents; shown is an unselected part. 13 of all reagents (1.6%) were called active. 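Calls reflect knock-down without drug only; drug synergy is judged separately, with scores above 0.15 counted as synergy.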 Entries without a mark were called inactive. No viability above 1 is reported: the scale is capped. Not all columns of the deposit are shown. Reagent sequences are not shown. Not given: the amount of reagent, the time to read-out.

Aim: 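siRNA screen across the kinome seeking drug partners in cells of colorectal cancer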 (primary screen)
System: human RCM1 colorectal cancer cell line
Knock-down reagent: siRNA pool against human genes
Treatment: separate arms: DMSO vehicle, or one anchor drug at a mild dose: BYL719 1 µM, cetuximab 5 µg/ml, trametinib 10 nM
Measured: 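Viability per well relative to a non-targeting pool, mean of replicates; robust z-score for knock-down alone; synergy score with BYL719, cetuximab or trametinib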
Scale: viability z-score, knock-down alone: higher = more viable cells than non-targeting controls; viability, knock-down alone (DMSO): higher = more viable cells
Units: viability, knock-down alone (DMSO) in fraction of control
Rule for the call: 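Essential when the viability robust z-score for knock-down alone is below -3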
Calls: active = essential when knocked down alone; inactive = no clear loss of viability alone

After knock-down of MAP3K12 (mitogen-activated protein kinase kinase kinase 12), the screen gave viability z-score, knock-down alone 0.0373; viability, knock-down alone (DMSO) = 0.92.
After knock-down of CDK7 (cyclin dependent kinase 7), the screen gave viability z-score, knock-down alone 0.9; viability, knock-down alone (DMSO) = 1.
RIOK2 (RIO kinase 2) gave viability z-score, knock-down alone -0.267; viability, knock-down alone (DMSO) = 0.892.
Silencing of CDK2 (cyclin dependent kinase 2) gave: viability z-score, knock-down alone 0.9; viability, knock-down alone (DMSO) = 1.
Silencing of ERBB3 (erb-b2 receptor tyrosine kinase 3) gave: viability z-score, knock-down alone -1.23; viability, knock-down alone (DMSO) = 0.802.
CHEK1 (checkpoint kinase 1) scored viability z-score, knock-down alone -5.22 (active); viability, knock-down alone (DMSO) = 0.432.
Knock-down of PRKAA1 (protein kinase AMP-activated catalytic subunit alpha 1) came out at: viability z-score, knock-down alone 0.9; viability, knock-down alone (DMSO) = 1.
DGKD (diacylglycerol kinase delta) scored viability z-score, knock-down alone 0.658; viability, knock-down alone (DMSO) = 0.978.
Knock-down of ROR1 (ROR family WNT receptor 1) gave: viability z-score, knock-down alone 0.9; viability, knock-down alone (DMSO) = 1.
STRADA (STE20 related adaptor alpha) gave viability z-score, knock-down alone 0.9; viability, knock-down alone (DMSO) = 1.
Depletion of GRK2 (G protein-coupled receptor kinase 2) came out at: viability z-score, knock-down alone 0.337; viability, knock-down alone (DMSO) = 0.948.
With knock-down of PRKCZ (protein kinase C zeta), the screen gave viability z-score, knock-down alone -2.07; viability, knock-down alone (DMSO) = 0.725.
Silencing of TRIB2 (tribbles pseudokinase 2) came out at: viability z-score, knock-down alone -0.667; viability, knock-down alone (DMSO) = 0.855.

Ordered by “viability, knock-down alone (DMSO)” (descending): some entries from above.
CDK7 (cyclin dependent kinase 7) | viability z-score, knock-down alone: 0.9; viability, knock-down alone (DMSO): 1
RIOK2 (RIO kinase 2) | viability z-score, knock-down alone: -0.267; viability, knock-down alone (DMSO): 0.892

More reagents follow:
Silencing of SIK2 (salt inducible kinase 2) resulted in: viability z-score, knock-down alone 0.857; viability, knock-down alone (DMSO) = 0.996.
For MAPK1 (mitogen-activated protein kinase 1), the entry reads viability z-score, knock-down alone -0.246; viability, knock-down alone (DMSO) = 0.894.
TTBK1 (tau tubulin kinase 1) showed viability z-score, knock-down alone 0.0993; viability, knock-down alone (DMSO) = 0.926.
For EPHA2 (EPH receptor A2), the entry reads viability z-score, knock-down alone 0.9; viability, knock-down alone (DMSO) = 1.
For PRKCQ (protein kinase C theta), the entry reads viability z-score, knock-down alone 0.738; viability, knock-down alone (DMSO) = 0.985.
NF1 (neurofibromin 1) gave viability z-score, knock-down alone -1.15; viability, knock-down alone (DMSO) = 0.81.
After knock-down of CHD9 (chromodomain helicase DNA binding protein 9), the record shows viability z-score, knock-down alone -0.172; viability, knock-down alone (DMSO) = 0.9.
After knock-down of MASTL (microtubule associated serine/threonine kinase like), the record shows viability z-score, knock-down alone -0.889; viability, knock-down alone (DMSO) = 0.834.
After knock-down of MAP2K5 (mitogen-activated protein kinase kinase 5), the record shows viability z-score, knock-down alone 0.582; viability, knock-down alone (DMSO) = 0.971.
Knock-down of PAK2 (p21 (RAC1) activated kinase 2) came out at: viability z-score, knock-down alone 0.519; viability, knock-down alone (DMSO) = 0.965.
For STK24 (serine/threonine kinase 24) the deposit lists viability z-score, knock-down alone 0.9; viability, knock-down alone (DMSO) = 1.
For CKMT1B (creatine kinase, mitochondrial 1B), the entry reads viability z-score, knock-down alone 0.376; viability, knock-down alone (DMSO) = 0.951.
After knock-down of MAPK9 (mitogen-activated protein kinase 9) the results were viability z-score, knock-down alone 0.232; viability, knock-down alone (DMSO) = 0.938.
For CSK (C-terminal Src kinase), the values are viability z-score, knock-down alone 0.9; viability, knock-down alone (DMSO) = 1.
For PHKB (phosphorylase kinase regulatory subunit beta), the entry reads viability z-score, knock-down alone 0.9; viability, knock-down alone (DMSO) = 1.
